B1: V5-Cx37 (wild type) [rat] / GFP-LC3B (expressed in HEK293A cells) [not stated (human cDNA cloned; a plasmid from Dr. Yoshimori also named)] (parent complex)
chain 1: MGDWGFLEKLLDQVQEHSTVVGKIWLTVLFIFRILILGLAGESVWGDEQSDFECNTAQPGCTNVCYDQAFPISHIRYWVLQFLFVSTPTLIYLGHVIYLSRREERLRQKEGELRALPSKDPHVERALAAIEHQMAKISVAEDGRLRIRGALMGTYVISVLCKSVLEAGFLYGQWRLYGWTMEPVFVCQRAPCPHVVDCYVSRPTEKTIFIIFMLVVGVISLVLNLLELVHLLCRCVSREIKARRDHDTRPAQGSASDPYPEQVFFYLPMGEGPSSPPCPTYNGLSSTEQNWANLTTEERLTSTRPPPFVNAAPQGGQKSSSRPNSSASKKQYV
chain 2: not shown
B2: V5-Cx50 (wild type) [rat] / GFP-LC3B (expressed in HEK293A cells) [not stated (human cDNA cloned; a plasmid from Dr. Yoshimori also named)] (parent complex)
chain 1: MGDWSFLGNILEEVNEHSTVIGRVWLTVLFIFRILILGTAAEFVWGDEQSDFVCNTQQPGCENVCYDEAFPISHIRLWVLQIIFVSTPSLMYVGHAVHHVRMEEKRKDREAEELCQQSRSNGGERVPIAPDQASIRKSSSSSKGTKKFRLEGTLLRTYVCHIIFKTLFEVGFIVGHYFLYGFRILPLYRCSRWPCPNVVDCFVSRPTEKTIFILFMLSVAFVSLFLNIMEMSHLGMKGIRSAFKRPAEQPLGEIAEKSLHSIAVSSIQKAKGYQLLEEEKIVSHYFPLTEVGMVETSPLSAKPFSQFEEKIGTGPLADMSRGYQETLPSYAQVGAQEVEREEQPVEEAVEPEVGEKKQEAEKVAPEGQETVAVPDGEKVETPGVGKDDEKEELQAEKVTKQGLSAEKAPTLCPELTTDDNRPLSRLSKASSRARSDDLTI
chain 2: not shown

Variants of: B1
Test: co-immunoprecipitation (IP: V5) and Western blot quantification; HEK293A cell lysates; read off a plot

Variant | ratio to parent
chain 1 W4A, chain 1 L7A | ~0.44

Variants of: B2
Test: as above

Variant | ratio to parent
chain 1 W4A, chain 1 L7A | ~0.61
